# Test results from the supplement of paper PMC12067093, “Discovery and optimisation of a covalent ligand for TRIM25 and its application to targeted protein ubiquitination” (Chemical Science, 2025).
# Protein sequences, listed by entry. Tags and fused reporters are not part of them. Lines headed by an entry give the natural chain unless they say otherwise; changes in a name come on top.
# UniProt Q8NDZ4: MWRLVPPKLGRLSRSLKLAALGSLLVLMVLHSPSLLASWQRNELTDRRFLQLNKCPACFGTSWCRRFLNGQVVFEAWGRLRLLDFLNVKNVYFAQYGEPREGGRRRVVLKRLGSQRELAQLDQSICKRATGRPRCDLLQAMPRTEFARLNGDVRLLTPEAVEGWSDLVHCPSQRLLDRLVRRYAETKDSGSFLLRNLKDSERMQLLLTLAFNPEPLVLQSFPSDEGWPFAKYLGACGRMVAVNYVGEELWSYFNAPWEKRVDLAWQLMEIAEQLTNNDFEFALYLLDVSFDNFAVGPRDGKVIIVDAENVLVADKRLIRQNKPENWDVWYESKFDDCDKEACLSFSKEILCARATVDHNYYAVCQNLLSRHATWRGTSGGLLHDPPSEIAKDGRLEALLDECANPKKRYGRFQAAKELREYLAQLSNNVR
# UniProt Q86YS7: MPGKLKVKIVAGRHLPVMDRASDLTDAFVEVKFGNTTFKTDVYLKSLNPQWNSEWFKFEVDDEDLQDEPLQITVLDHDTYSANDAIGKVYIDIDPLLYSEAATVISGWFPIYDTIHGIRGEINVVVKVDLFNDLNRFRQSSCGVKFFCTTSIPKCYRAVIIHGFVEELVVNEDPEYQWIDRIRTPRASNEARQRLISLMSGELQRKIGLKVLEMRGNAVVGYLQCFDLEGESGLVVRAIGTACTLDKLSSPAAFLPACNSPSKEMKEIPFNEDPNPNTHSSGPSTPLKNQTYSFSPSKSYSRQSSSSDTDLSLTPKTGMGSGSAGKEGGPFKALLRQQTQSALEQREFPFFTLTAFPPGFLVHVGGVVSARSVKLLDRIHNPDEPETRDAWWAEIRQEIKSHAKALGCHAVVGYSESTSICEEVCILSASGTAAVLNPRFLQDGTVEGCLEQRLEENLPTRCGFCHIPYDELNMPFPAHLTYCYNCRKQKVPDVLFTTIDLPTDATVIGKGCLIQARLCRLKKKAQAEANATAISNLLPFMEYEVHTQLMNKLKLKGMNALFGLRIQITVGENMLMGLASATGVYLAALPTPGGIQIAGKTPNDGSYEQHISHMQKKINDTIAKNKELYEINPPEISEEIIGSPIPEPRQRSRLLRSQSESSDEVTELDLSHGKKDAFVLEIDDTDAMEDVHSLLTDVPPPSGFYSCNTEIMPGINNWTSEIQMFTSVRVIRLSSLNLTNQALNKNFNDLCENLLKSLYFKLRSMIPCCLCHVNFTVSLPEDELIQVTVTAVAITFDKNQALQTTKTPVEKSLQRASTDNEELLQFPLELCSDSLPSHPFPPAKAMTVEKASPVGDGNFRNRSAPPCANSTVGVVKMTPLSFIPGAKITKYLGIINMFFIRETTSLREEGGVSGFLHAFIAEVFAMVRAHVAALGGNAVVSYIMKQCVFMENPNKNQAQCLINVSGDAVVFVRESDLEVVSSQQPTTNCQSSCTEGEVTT
# UniProt P27708: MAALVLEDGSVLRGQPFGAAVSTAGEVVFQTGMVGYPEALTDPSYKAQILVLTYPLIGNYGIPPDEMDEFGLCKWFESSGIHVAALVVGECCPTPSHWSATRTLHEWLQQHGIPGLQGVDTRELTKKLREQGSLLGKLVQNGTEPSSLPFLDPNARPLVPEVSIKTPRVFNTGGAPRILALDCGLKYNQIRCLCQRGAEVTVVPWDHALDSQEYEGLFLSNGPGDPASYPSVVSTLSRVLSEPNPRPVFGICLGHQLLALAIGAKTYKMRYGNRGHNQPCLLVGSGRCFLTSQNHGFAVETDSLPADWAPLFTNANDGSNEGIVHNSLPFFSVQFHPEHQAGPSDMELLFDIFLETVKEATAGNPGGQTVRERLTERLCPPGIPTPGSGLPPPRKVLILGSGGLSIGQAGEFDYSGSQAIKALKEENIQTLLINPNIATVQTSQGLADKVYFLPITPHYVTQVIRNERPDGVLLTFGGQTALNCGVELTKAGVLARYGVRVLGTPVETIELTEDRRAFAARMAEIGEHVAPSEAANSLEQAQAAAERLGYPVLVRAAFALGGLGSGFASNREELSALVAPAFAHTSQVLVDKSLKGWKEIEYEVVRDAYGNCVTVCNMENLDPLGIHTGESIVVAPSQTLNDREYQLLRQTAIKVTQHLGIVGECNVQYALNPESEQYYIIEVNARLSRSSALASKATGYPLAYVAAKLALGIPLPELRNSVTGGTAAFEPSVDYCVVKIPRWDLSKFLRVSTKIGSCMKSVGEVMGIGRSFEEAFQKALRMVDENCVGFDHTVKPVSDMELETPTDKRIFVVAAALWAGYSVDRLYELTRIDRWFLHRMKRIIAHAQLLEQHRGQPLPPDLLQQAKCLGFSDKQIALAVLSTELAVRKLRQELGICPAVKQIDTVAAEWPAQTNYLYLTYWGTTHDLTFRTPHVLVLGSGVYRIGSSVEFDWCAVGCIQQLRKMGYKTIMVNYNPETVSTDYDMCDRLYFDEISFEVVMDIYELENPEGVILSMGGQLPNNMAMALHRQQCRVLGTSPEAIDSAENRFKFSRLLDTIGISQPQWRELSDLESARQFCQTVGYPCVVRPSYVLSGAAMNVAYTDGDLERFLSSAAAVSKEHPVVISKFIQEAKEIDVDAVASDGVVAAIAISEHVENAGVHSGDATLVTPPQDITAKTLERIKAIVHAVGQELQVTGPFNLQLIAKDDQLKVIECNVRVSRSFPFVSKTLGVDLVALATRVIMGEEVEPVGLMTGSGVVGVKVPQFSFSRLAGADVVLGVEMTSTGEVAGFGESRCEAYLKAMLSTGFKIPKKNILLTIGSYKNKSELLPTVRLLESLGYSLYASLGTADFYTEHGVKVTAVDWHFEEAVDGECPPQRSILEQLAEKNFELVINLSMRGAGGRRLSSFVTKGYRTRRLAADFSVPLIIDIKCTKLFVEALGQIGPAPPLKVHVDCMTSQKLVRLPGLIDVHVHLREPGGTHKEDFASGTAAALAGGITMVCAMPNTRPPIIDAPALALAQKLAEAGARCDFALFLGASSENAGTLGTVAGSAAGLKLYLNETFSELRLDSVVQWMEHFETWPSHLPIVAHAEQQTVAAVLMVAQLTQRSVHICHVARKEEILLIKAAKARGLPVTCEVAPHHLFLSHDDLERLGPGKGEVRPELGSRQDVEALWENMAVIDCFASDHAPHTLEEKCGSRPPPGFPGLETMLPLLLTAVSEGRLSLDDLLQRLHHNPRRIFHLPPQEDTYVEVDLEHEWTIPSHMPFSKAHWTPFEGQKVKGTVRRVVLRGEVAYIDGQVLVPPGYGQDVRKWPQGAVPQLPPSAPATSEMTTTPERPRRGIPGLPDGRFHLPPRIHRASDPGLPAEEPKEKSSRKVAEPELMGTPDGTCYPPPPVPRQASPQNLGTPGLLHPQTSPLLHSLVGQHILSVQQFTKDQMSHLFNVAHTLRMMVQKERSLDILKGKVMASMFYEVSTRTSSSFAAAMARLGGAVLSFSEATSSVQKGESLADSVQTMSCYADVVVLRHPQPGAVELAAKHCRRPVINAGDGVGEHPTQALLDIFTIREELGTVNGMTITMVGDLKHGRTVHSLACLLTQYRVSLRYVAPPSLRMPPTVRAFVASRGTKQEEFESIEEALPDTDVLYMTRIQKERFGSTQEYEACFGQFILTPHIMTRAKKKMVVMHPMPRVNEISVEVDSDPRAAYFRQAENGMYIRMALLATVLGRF
# UniProt P27824: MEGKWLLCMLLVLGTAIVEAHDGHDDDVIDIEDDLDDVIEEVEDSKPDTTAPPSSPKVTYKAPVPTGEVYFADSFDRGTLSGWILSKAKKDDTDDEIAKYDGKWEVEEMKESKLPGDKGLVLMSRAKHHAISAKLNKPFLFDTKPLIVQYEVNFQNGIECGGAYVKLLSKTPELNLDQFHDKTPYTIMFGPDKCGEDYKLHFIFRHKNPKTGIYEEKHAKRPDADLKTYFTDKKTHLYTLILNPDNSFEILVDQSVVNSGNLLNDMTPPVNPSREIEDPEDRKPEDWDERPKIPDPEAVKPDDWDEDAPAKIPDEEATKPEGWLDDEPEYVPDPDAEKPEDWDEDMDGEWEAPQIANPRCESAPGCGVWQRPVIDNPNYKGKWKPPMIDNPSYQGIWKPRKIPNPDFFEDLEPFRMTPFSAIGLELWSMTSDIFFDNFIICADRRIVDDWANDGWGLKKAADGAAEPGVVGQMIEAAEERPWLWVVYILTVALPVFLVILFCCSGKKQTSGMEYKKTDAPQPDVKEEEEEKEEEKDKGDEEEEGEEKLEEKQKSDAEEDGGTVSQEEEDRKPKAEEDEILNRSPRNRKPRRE
# UniProt Q9H0W9: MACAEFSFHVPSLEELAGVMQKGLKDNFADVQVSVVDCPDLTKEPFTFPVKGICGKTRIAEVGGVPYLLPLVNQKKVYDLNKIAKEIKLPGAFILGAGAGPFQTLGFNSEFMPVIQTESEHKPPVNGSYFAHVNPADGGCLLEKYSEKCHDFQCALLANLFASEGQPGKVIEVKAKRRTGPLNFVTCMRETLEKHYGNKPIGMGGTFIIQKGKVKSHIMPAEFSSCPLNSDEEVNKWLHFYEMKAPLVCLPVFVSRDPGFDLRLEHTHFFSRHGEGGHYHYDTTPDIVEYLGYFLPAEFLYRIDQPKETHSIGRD
# UniProt Q8TDN6: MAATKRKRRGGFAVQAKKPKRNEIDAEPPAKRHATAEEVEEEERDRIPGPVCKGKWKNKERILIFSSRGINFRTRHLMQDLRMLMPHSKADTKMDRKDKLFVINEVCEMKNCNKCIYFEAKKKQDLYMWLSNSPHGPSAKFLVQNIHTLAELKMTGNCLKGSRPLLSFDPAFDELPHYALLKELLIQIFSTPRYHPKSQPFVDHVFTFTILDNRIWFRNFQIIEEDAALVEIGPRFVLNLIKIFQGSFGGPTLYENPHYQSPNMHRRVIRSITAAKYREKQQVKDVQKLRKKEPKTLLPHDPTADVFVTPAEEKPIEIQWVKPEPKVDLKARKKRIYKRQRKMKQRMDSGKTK
# UniProt Q06187: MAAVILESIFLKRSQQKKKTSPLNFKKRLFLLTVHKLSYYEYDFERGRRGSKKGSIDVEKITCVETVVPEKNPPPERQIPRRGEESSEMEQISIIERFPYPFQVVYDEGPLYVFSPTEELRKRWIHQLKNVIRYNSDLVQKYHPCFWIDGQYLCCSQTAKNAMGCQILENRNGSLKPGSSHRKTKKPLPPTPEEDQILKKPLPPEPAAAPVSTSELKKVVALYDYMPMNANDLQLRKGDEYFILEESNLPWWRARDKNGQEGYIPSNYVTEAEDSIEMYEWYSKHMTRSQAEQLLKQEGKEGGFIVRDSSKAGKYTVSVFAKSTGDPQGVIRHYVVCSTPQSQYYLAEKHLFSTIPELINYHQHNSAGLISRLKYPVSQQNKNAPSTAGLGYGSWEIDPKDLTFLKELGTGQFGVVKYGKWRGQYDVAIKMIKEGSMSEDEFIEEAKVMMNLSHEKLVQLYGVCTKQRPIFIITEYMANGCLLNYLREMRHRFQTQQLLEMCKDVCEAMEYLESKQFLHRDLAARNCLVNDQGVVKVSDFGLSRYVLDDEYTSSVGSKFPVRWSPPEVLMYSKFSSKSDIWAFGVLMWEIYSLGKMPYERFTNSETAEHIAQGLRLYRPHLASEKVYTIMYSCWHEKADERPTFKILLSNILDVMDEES
# The other results are listed elsewhere or left out.
# Compound: Cc1cc(ccc1-c1ccccc1)C(=O)N1CCCN(CC1)C(=O)CCl [compound 10]
# Assay: probe-labelled cysteine peptide fold change vs DMSO (competition) (log2 fold change); higher = less target engagement (more negative = stronger competition)
# Details: THP-1, incubation time: 4 h
# 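Further: competitive profiling in live THP-1 cells: cysteine peptides tagged with an iodoacetamide desthiobiotin (IA-DTB) probe, intensity after compound treatment relative to DMSO-treated cells.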
Target,probe-labelled cysteine peptide fold change (10 µM),probe-labelled cysteine peptide fold change (50 µM)
CACNA1G_O43497_1019_CLALVSLGEHPELR (UniProt O43497),0.092,0.122
C3orf58_Q8NDZ4_402_DGRLEALLDECANPK (UniProt Q8NDZ4),-0.198,0.11
BTN3A3_O00478_512_ILTLEPTALTICPIPK (UniProt O00478),-0.105,0.108
C2CD5_Q86YS7_486_CGFCHIPYDELNMPFPAHLTYCYNCR (UniProt Q86YS7),0.132,-0.157
CAD_P27708_1296_CEAYLK (UniProt P27708),-0.127,-0.216
CANX_P27824_160_PLIVQYEVNFQNGIECGGAYVK (UniProt P27824),-0.141,0.376
CAND1_Q86VP6_179_QGGLLVNFHPSILTCLLPQLTSPR (UniProt Q86VP6),0.326,0.182
C20orf27_Q9GZN8_106_CEYSAHK (UniProt Q9GZN8),0.129,-0.0108
CAMK2G_Q13555_7_ATTATCTR (UniProt Q13555),-0.074,-0.162
C12orf10_Q9HB07_56+62_IGTHNGTFHCDEALACALLR (UniProt Q9HB07),0.0654,-0.118
C8orf82_Q6P1X6_107_CEDRPVVFTHLLTADHGPPR (UniProt Q6P1X6),-0.0867,0.0534
BRD2_P25440_353_HCNGILK (UniProt P25440),0.0541,0.0166
BTAF1_O14981_1401_FNYCILDEGHVIK (UniProt O14981),0.0296,0.242
CABIN1_Q9Y6J0_829_LTNNLIQVIDCSMAVQEEAK (UniProt Q9Y6J0),-0.118,0.138
CAMK1_Q14012_267_FTCEQALQHPWIAGDTALDK (UniProt Q14012),-0.0147,0.0482
BRD1_O95696_638_NLHEFEEDFDLIIDNCMK (UniProt O95696),0.346,0.469
BRD4_O60885_607_CKPMSYEEK (UniProt O60885),0.0999,-0.173
CAND2_O75155_358_CIAALISSRPDLLPDFHCTLAPVLIR (UniProt O75155),0.229,-0.0975
C3_P01024_662_AELQCPQPAAR (UniProt P01024),-0.319,-1.02
BRIP1_Q9BX63_283_DHTCVHPEVVGNFNR (UniProt Q9BX63),0.111,0.0536
C11orf54_Q9H0W9_3_ACAEFSFHVPSLEELAGVMQK (UniProt Q9H0W9),0.0216,-0.257

Target,probe-labelled cysteine peptide fold change (10 µM),probe-labelled cysteine peptide fold change (50 µM)
BRIP1_Q9BX63_401_EQVVILDEAHNIEDCAR (UniProt Q9BX63),-0.207,-0.335
CAMK2B_Q13554_273_HPWVCQR (UniProt Q13554),-0.00337,0.237
BTAF1_O14981_862_VHTFAACAVVSLQQLPEK (UniProt O14981),0.085,0.377
BUD31_P41223_119_DTNFGTNCICR (UniProt P41223),0.0661,-0.161
BRD1_O95696_341_GVGACIQCHK (UniProt O95696),0.0942,-0.0457
BRCC3_P46736_240_ILCQEEQDAYR (UniProt P46736),-0.203,0.187
CAMK2B_Q13554_116_EYYSEADASHCIQQILEAVLHCHQMGVVHR (UniProt Q13554),-0.0191,0.141
BRWD1_Q9NSI6_1166_SRDEECDR (UniProt Q9NSI6),-0.0851,0.0754
BRD8_Q9H0E9_26_LCLASSVMR (UniProt Q9H0E9),-0.0834,-0.169
BRD4_O60885_674_YVTSCLR (UniProt O60885),0.119,-0.0107
BRIX1_Q8TDN6_52_HATAEEVEEEERDRIPGPVCK (UniProt Q8TDN6),-0.222,-0.542
CANX_P27824_360_CESAPGCGVWQR (UniProt P27824),-0.0628,0.244
C3orf58_Q8NDZ4_170_LLTPEAVEGWSDLVHCPSQR (UniProt Q8NDZ4),-0.229,-0.062
BRD4_O60885_429_LMFSNCYK (UniProt O60885),0.0685,0.0127
CAD_P27708_2161_FGSTQEYEACFGQFILTPHIMTR (UniProt P27708),0.0378,0.111
C16orf62_Q7Z3J2_454_ECDESGFPK (UniProt Q7Z3J2),-0.298,-0.132
BTAF1_O14981_1579_LCNHPALVLTPQHPEFK (UniProt O14981),0.0545,0.332
C16orf62_Q7Z3J2_20_AEFASCR (UniProt Q7Z3J2),-0.12,-0.0888
BRIX1_Q8TDN6_52_IPGPVCK (UniProt Q8TDN6),-0.292,-0.284
CAD_P27708_183_ILALDCGLK (UniProt P27708),0.0878,-0.184
BTK_Q06187_506_DVCEAMEYLESK (UniProt Q06187),0.149,-0.0539

# A portion taken from the entries so far, as a working copy:
Target,probe-labelled cysteine peptide fold change (10 µM),probe-labelled cysteine peptide fold change (50 µM)
BRD4_O60885_674_YVTSCLR (UniProt O60885),0.119,-0.0107
BRIX1_Q8TDN6_52_HATAEEVEEEERDRIPGPVCK (UniProt Q8TDN6),-0.222,-0.542

# Going on with the list.

Target,probe-labelled cysteine peptide fold change (10 µM),probe-labelled cysteine peptide fold change (50 µM)
BRIX1_Q8TDN6_52_RHATAEEVEEEERDRIPGPVCK (UniProt Q8TDN6),-0.278,-0.296
CALR_P27797_105_GQTLVVQFTVKHEQNIDCGGGYVK (UniProt P27797),-0.343,-0.766
BRF1_Q92994_106_HIHHLGNQLQLNQHCLDTAFNFFK (UniProt Q92994),-0.0985,-0.404
CAD_P27708_1682_QDVEALWENMAVIDCFASDHAPHTLEEK (UniProt P27708),-0.0682,0.156
CABIN1_Q9Y6J0_1573_DVLLGSSIPWQQLQHMPAQGLFCER (UniProt Q9Y6J0),0.1,0.0414
C5orf51_A6NDU8_268_YVSVCEGPLK (UniProt A6NDU8),-0.0462,0.0945
C2CD2_Q9Y426_244_EAQNLQCAASTAQESCPPKPPR (UniProt Q9Y426),-0.208,-0.189
BTK_Q06187_464_LVQLYGVCTK (UniProt Q06187),0.106,-0.029
BRD1_O95696_294_TDDDRWGHVVCALWIPEVGFANTVFIEPIDGVR (UniProt O95696),-0.0156,0.0676
C20orf27_Q9GZN8_131_EEILLACEGGTGTCVR (UniProt Q9GZN8),0.488,0.477
C2CD5_Q86YS7_243_AIGTACTLDK (UniProt Q86YS7),-0.17,-0.205
C11orf54_Q9H0W9_154_CHDFQCALLANLFASEGQPGK (UniProt Q9H0W9),-0.0884,-0.214
BRCA1_P38398_348_KVDLNADPLCER (UniProt P38398),-0.139,-0.043
BRD7_Q9NPI1_574_LSTRPPPNMICLLGPSYR (UniProt Q9NPI1),-0.0821,-0.402
C9orf64_Q5T6V5_170_FGGSFLNCVR (UniProt Q5T6V5),0.134,0.227
C3_P01024_873_VRVELLHNPAFCSLATTK (UniProt P01024),-0.489,-0.6
CAD_P27708_1613_SVHICHVAR (UniProt P27708),0.0918,0.483
C3_P01024_1458_VSHSEDDCLAFK (UniProt P01024),-0.0484,-0.0967
BSG_P35613_242_SSEHINEGETAMLVCK (UniProt P35613),-0.298,-0.091
C8orf33_Q9H7E9_21_AALGHLAGEAAAAPGPGTPCASR (UniProt Q9H7E9),-0.0887,0.113
